Earlier results in US11761043B2, “Machine assay and analysis for selecting antihypertensive drugs” (Geneticure Inc., priority 2014, dated 2023).

By UniProt entry, the sequences of proteins in these tests, tags left out.
UniProt P10635, whole entry: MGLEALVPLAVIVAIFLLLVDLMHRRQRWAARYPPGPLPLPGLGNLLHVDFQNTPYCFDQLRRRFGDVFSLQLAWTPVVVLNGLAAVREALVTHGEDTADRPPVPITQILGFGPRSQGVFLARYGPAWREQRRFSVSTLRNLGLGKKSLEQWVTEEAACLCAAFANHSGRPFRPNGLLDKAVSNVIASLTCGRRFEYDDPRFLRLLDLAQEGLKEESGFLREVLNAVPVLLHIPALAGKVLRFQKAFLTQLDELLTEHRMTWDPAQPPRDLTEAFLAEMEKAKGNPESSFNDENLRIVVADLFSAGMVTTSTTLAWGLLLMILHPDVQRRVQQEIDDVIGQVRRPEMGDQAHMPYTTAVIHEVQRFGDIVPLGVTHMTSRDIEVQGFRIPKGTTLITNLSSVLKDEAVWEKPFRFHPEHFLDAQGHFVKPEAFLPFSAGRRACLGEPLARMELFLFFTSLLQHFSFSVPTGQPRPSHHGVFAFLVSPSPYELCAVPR

Biological target: CYP2D6 (Homo sapiens, UniProt P10635)
Conditions: in vivo

Question: With `CC(C)NCC(O)COc1ccc(CC(N)=O)cc1` (stereo not shown) [atenolol] as the compound, how does the “requirement of CYP2D6 for metabolism” value read?
Answer: do not require CYP2D6 for their metabolism
